This is one part of the list.
Compound: CC(C)(O)CC(=O)NCCn1ccc2ncnc(Nc3ccc(Oc4cccc(C(F)(F)F)c4)c(Cl)c3)c21
Assay: log2 fold change, soluble protein after heating vs DMSO (PISA); higher = thermal stabilisation; K562 lysate, 10 uM; active = over 0.2 and 3.5 SD of the protein, either way, in both replicates (recomputed)
How it was run: (§1)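 To prepare the extract, K562 pellets were dounce-homogenised in PBS pH 7.4 with 1 mM MgCl2, giving crude material at 1 mg/mL protein. This was treated with 10 μM compound for 30 min, then heated in aliquots for 3 min over 48°C-58°C before pooling and addition of NP-40 to 0.5% at 4°C. Centrifugation at 21,000xg for 90 min left soluble protein in the supernatant, which TMTpro 16plex LC-MS/MS quantified with equalised channel sums. Results are log-two fold changes in thermal stability compared with solvent controls, from duplicates.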

The chains behind the UniProt entries cited, without tags or fusion partners. Where a name states a change or a piece, a line headed by the entry shows the natural chain unless it says otherwise.
UniProt P13010: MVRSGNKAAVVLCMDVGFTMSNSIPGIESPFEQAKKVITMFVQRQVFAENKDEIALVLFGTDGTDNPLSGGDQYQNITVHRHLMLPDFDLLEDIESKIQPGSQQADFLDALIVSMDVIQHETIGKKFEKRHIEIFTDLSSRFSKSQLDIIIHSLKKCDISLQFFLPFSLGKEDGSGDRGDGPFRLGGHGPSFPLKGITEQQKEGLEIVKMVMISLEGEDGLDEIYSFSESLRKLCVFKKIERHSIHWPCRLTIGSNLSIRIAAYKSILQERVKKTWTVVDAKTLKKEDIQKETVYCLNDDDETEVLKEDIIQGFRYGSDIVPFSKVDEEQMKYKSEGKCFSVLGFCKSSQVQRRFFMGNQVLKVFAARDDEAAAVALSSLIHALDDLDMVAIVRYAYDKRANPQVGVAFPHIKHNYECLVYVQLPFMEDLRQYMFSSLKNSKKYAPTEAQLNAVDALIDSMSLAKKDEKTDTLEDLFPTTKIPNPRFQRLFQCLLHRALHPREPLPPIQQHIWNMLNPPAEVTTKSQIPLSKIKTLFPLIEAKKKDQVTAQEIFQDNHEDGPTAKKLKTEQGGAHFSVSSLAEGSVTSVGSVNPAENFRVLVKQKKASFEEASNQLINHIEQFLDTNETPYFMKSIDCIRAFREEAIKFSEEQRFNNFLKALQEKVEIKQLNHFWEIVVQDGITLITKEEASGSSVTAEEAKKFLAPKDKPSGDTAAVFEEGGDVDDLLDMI
UniProt Q9UGR2: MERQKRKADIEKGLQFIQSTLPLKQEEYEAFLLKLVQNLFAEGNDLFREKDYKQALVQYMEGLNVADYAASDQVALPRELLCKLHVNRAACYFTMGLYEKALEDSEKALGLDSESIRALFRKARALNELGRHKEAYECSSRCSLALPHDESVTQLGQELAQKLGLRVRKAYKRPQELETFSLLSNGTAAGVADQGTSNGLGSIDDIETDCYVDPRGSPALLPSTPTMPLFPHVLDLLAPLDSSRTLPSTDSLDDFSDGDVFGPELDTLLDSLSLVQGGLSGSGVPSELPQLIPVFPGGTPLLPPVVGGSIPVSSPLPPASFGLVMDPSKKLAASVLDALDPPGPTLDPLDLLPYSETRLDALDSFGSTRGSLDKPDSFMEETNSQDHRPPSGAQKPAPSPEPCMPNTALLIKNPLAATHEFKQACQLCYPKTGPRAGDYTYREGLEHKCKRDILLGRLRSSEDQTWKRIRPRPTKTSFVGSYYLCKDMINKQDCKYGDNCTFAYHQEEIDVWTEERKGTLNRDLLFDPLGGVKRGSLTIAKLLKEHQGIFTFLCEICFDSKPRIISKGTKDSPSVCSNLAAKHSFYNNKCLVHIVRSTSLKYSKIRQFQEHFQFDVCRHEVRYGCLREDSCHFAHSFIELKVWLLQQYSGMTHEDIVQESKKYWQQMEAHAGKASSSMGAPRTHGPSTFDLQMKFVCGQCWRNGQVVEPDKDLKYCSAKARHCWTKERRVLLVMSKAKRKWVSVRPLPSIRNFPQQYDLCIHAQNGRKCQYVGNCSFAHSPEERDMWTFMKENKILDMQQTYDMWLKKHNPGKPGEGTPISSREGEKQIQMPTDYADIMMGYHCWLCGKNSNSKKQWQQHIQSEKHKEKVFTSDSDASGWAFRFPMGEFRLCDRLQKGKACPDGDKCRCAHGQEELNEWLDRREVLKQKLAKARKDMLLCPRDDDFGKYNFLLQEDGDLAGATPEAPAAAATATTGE
UniProt Q6FIF0: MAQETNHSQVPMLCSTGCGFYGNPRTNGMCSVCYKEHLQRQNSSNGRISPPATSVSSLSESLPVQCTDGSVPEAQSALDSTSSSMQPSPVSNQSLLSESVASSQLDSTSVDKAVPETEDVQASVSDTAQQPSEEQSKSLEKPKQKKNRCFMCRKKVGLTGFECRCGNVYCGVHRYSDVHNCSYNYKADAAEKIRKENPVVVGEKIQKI
UniProt A8MPS7: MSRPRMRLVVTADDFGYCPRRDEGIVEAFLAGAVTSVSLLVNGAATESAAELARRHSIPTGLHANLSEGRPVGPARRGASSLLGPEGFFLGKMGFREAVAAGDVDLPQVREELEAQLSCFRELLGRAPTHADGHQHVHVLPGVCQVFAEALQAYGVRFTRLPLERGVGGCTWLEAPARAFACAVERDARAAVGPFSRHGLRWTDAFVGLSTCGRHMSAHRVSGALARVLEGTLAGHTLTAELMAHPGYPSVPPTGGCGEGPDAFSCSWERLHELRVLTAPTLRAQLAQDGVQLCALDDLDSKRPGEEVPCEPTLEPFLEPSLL
UniProt Q9NUE0: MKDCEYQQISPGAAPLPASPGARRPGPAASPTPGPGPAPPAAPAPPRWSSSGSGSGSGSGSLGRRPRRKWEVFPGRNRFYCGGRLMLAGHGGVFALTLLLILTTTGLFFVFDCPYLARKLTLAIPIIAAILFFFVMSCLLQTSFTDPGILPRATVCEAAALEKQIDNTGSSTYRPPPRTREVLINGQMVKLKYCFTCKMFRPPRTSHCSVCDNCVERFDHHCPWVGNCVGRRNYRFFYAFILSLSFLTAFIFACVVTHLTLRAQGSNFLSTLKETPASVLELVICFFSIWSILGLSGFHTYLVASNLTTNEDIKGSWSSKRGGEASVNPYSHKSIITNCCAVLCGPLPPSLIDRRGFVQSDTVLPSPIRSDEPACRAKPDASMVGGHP
UniProt O43829: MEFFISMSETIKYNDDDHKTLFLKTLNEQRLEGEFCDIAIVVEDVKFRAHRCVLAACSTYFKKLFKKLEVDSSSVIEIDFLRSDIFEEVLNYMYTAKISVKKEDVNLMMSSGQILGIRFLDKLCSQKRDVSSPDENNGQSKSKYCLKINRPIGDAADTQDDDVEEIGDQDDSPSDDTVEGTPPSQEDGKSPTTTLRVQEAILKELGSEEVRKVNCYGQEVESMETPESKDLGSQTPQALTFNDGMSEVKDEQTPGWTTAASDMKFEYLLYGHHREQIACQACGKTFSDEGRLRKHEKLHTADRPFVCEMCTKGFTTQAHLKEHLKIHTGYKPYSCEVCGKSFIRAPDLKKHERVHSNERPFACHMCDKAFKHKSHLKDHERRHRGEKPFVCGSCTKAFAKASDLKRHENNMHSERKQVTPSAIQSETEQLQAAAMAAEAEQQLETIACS
UniProt P62699: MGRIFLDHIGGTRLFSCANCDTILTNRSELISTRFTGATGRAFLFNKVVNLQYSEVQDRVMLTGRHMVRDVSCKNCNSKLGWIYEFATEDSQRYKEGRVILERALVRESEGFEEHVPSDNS
UniProt Q96GY0: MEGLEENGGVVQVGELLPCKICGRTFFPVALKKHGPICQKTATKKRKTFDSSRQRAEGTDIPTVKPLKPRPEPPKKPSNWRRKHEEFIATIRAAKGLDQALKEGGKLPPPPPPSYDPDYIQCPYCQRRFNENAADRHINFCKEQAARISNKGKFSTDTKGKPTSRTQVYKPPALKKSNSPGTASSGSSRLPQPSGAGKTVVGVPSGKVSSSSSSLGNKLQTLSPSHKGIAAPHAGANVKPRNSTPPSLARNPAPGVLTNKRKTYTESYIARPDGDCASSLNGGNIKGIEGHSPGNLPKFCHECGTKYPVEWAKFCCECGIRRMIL
UniProt Q9Y2Z4: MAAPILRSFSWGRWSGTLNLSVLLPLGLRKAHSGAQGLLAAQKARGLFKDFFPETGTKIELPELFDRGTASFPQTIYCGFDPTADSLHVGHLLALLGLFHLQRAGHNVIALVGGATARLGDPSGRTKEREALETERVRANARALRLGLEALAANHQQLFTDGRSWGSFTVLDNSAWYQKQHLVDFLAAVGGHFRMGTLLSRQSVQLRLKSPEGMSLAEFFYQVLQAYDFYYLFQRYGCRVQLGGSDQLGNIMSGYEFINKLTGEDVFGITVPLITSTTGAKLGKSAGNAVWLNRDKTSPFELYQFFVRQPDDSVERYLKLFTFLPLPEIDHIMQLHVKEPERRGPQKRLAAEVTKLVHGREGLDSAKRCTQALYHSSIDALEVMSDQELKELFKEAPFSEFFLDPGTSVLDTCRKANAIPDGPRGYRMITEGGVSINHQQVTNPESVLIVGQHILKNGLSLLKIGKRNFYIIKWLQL
UniProt Q86T24: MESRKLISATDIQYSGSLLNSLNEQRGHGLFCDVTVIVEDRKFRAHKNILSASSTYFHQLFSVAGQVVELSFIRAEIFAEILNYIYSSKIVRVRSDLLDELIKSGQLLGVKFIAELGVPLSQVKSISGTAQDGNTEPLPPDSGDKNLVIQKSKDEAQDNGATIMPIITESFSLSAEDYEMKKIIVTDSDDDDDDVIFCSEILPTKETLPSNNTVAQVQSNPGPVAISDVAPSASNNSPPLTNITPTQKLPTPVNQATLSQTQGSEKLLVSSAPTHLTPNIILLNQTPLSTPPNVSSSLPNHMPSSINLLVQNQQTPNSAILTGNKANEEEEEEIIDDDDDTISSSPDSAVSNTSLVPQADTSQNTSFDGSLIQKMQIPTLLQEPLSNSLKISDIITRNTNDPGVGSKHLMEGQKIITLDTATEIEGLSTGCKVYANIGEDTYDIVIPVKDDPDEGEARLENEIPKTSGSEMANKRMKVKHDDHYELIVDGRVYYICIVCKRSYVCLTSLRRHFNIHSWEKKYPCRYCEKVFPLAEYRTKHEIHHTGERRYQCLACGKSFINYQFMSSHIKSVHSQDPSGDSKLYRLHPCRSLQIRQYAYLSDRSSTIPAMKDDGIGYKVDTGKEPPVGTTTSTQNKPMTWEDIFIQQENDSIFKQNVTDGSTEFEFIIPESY
UniProt Q86U90: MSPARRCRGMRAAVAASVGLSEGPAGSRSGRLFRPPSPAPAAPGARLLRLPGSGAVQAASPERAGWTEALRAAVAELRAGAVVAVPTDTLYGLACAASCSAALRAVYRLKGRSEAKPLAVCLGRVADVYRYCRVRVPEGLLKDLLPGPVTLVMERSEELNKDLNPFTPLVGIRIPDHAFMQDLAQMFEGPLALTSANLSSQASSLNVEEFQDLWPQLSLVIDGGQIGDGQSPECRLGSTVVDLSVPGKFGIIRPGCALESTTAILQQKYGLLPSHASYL
UniProt P67809, whole entry, looked up: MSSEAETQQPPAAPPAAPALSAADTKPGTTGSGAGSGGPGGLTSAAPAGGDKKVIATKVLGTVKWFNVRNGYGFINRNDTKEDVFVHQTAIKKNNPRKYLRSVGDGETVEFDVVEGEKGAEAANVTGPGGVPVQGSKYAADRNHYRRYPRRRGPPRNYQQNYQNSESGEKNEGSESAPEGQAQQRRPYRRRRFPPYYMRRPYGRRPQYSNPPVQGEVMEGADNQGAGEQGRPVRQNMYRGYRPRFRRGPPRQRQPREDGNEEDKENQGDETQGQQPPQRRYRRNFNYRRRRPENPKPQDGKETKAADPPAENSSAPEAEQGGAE
UniProt O75191: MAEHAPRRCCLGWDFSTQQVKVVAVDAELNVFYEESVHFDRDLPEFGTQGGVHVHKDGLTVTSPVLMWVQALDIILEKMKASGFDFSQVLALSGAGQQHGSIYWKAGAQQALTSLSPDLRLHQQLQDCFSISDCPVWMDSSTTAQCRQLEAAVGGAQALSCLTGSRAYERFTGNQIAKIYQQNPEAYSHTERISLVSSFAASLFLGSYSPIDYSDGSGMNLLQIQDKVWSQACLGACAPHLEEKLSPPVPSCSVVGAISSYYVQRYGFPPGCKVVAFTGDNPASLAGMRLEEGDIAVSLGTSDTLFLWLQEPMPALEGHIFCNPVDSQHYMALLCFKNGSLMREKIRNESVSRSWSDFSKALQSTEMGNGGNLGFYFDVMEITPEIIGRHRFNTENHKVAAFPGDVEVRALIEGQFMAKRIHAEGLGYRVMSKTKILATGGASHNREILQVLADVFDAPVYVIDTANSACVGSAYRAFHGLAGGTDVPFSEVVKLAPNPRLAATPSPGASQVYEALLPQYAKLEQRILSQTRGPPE
UniProt Q5BJH7: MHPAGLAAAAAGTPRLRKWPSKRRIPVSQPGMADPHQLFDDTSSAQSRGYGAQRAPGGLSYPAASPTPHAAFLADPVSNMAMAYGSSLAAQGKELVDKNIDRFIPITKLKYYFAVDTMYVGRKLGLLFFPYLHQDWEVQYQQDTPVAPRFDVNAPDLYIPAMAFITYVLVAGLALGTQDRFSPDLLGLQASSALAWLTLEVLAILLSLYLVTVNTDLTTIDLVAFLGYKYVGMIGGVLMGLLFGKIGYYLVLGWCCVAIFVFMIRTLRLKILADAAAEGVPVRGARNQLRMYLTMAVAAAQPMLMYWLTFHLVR
UniProt Q8NBI6: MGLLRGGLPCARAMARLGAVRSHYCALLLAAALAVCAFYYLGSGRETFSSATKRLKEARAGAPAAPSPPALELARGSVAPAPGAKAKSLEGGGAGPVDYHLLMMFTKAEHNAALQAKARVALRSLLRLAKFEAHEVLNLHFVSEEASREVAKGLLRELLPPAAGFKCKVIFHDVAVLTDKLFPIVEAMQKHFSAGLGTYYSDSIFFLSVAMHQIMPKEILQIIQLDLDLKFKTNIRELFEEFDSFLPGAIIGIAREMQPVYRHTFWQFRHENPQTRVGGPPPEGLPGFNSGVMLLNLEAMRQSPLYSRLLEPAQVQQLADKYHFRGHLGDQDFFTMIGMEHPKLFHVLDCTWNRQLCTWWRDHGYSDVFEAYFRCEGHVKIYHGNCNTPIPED

log2 fold change, active:
YES1 (UniProt P07947) 0.511

log2 fold change, inactive:
XRCC5 (UniProt P13010) 0.004, ZC3H7B (UniProt Q9UGR2) -0.04, YLPM1 (UniProt P49750) 0.022, ZFAND6 (UniProt Q6FIF0) -0.095, ZGPAT (UniProt Q8N5A5) -0.017, ZC3H13 (UniProt Q5T200) -0.072, YOD1 (UniProt Q5VVQ6) -0.043, YDJC (UniProt A8MPS7) -0.064, ZDHHC18 (UniProt Q9NUE0) -0.017, ZBTB14 (UniProt O43829) -0.116, XRN1 (UniProt Q8IZH2) -0.032, ZEB2 (UniProt O60315) -0.027, XPR1 (UniProt Q9UBH6) -0.105, YJU2 (UniProt Q9BW85) -0.014, YME1L1 (UniProt Q96TA2) -0.043, YPEL5 (UniProt P62699) -0.047, ZC3H18 (UniProt E7ERS3) -0.058, ZFYVE16 (UniProt Q7Z3T8) -0.018, ZFAND5 (UniProt O76080) 0, ZER1 (UniProt Q7Z7L7) -0.117, ZC2HC1A (UniProt Q96GY0) -0.056, YTHDF2 (UniProt Q9Y5A9) -0.011, YARS2 (UniProt Q9Y2Z4) -0.037, XPO7 (UniProt Q9UIA9) -0.035, ZBTB33 (UniProt Q86T24) -0.158, XPO6 (UniProt Q96QU8) -0.006, YRDC (UniProt Q86U90) -0.012, YARS (UniProt P54577) -0.004, ZFPL1 (UniProt O95159) 0.306, ZC3HAV1 (UniProt Q7Z2W4) 0.024, YBX1 (UniProt P67809) -0.034, ZBTB21 (UniProt Q9ULJ3) -0.046, XYLB (UniProt O75191) -0.012, YTHDF1 (UniProt Q9BYJ9) -0.05, YIF1B (UniProt Q5BJH7) -0.026, ZFC3H1 (UniProt O60293) -0.023, XXYLT1 (UniProt Q8NBI6) -0.022

Compound: CC(C)C1=C2N=C(C=C(N2N=C1)NCC3=CC=CC=C3)NCCCCCCN
Assay: as above
How it was run: as §1

log2 fold change, inactive:
XRCC5 (UniProt P13010) 0.008, ZC3H7B (UniProt Q9UGR2) 0.065, YLPM1 (UniProt P49750) -0.006, ZFAND6 (UniProt Q6FIF0) -0.016, ZGPAT (UniProt Q8N5A5) 0.013, ZC3H13 (UniProt Q5T200) 0.058, YES1 (UniProt P07947) 0.061, YOD1 (UniProt Q5VVQ6) -0.002, YDJC (UniProt A8MPS7) -0.028, ZDHHC18 (UniProt Q9NUE0) -0.137, ZBTB14 (UniProt O43829) 0.045, XRN1 (UniProt Q8IZH2) 0.067, ZEB2 (UniProt O60315) 0.036, XPR1 (UniProt Q9UBH6) -0.023, YJU2 (UniProt Q9BW85) -0.013, YME1L1 (UniProt Q96TA2) 0, YPEL5 (UniProt P62699) 0.076, ZC3H18 (UniProt E7ERS3) 0.01, ZFYVE16 (UniProt Q7Z3T8) -0.022, ZFAND5 (UniProt O76080) -0.151, ZER1 (UniProt Q7Z7L7) 0.026, ZC2HC1A (UniProt Q96GY0) -0.038, YTHDF2 (UniProt Q9Y5A9) 0.07, YARS2 (UniProt Q9Y2Z4) 0.018, XPO7 (UniProt Q9UIA9) -0.021, ZBTB33 (UniProt Q86T24) 0.141, XPO6 (UniProt Q96QU8) -0.033, YRDC (UniProt Q86U90) 0.027, YARS (UniProt P54577) 0.013, ZFPL1 (UniProt O95159) -0.077, ZC3HAV1 (UniProt Q7Z2W4) 0.003, YBX1 (UniProt P67809) -0.019, ZBTB21 (UniProt Q9ULJ3) -0.07, XYLB (UniProt O75191) 0.022, YTHDF1 (UniProt Q9BYJ9) 0.049, YIF1B (UniProt Q5BJH7) -0.006, ZFC3H1 (UniProt O60293) -0.054, XXYLT1 (UniProt Q8NBI6) 0.05

Reference: the supplement of paper PMC10849652
